# In publication PMC12404750:
# T1: Cullin 5 (mouse (endogenous in cultured HSPCs and bone marrow cells)), Q9D5V5
# T1 chain: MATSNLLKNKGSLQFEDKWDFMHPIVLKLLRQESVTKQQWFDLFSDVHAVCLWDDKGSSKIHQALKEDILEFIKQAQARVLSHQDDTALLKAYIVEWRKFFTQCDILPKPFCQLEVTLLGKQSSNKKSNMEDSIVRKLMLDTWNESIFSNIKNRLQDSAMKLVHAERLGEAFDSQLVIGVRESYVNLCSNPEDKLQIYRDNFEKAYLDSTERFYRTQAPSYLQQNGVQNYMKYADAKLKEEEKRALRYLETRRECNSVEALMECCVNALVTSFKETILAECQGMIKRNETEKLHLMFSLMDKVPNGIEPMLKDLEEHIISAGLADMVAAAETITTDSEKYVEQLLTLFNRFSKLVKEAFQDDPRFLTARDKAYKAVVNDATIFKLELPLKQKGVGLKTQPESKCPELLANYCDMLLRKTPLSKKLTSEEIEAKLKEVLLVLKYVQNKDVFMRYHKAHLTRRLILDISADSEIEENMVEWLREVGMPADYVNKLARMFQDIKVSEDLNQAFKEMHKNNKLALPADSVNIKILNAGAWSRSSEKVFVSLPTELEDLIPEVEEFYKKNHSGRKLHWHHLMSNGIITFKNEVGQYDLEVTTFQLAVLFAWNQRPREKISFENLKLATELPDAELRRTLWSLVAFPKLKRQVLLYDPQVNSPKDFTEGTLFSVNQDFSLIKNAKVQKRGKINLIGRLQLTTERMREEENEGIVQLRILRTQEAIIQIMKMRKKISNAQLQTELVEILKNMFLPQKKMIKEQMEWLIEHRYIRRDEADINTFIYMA
# T2: LRRC41 (mouse (endogenous in cultured HSPCs and bone marrow cells)) (UniProt Q8K1C9)
# T2 sequence: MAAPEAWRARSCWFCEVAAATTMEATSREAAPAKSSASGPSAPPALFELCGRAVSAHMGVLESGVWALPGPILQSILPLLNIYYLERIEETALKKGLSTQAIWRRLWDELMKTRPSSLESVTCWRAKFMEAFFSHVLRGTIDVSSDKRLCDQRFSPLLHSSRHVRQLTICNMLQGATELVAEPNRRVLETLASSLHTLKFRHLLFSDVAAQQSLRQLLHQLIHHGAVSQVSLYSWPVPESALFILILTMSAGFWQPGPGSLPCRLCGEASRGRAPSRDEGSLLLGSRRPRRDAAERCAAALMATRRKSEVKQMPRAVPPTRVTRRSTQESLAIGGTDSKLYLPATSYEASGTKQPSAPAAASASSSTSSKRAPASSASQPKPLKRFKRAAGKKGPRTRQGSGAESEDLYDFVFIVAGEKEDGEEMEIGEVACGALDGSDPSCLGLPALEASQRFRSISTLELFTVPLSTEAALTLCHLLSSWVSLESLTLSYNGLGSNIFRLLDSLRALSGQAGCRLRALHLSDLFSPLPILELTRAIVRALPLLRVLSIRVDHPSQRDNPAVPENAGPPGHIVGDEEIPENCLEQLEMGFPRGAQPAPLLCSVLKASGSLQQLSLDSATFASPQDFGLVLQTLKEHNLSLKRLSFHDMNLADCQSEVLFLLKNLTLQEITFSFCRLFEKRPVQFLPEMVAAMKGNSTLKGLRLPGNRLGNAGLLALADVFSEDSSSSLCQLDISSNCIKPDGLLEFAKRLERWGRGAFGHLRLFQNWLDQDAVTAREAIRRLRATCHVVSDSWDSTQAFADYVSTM
# Key:
# [1] = molecular target: T1, Cullin 5 (mouse (endogenous in cultured …)); assay: affinity purification with mass spectrometry; anti-CUL5 antibody (4 ug/mg) or rabbit IgG isotype control, Dynabeads; lysate (1% NP-40, 100 mM NaCl, 50 mM Tris-HCl) of HSPCs expanded from WT CD34lo HSCs with TPO, SCF and IL-3, bortezomib 50 nM for 2 hours before harvest; overnight at 4°C; tandem mass spectrometry; settings: remark: other sources report otherwise
# [2] = molecular target: STAT5 (mouse (endogenous in cultured HSPCs and bone marrow cells)); assay: affinity purification with mass spectrometry; anti-STAT5 antibody (10 uL/mg) or rabbit IgG, Dynabeads; bone marrow cells stimulated with IL-3 (20 ng/mL), cross-linked with disuccinimidyl dibutyric urea (1 mM, 10 minutes) before lysis; overnight at 4°C; mass spectrometry
# [3] = molecular target: T2, LRRC41 (mouse (endogenous in cultured HSPCs and bone marrow cells)); assay: affinity purification with mass spectrometry; anti-LRRC41 antibody (4 ug/mg) or rabbit IgG, Dynabeads; WT bone marrow cells stimulated with IL-3 (20 ng/mL), cross-linked with disuccinimidyl dibutyric urea (1 mM, 10 minutes) before lysis; overnight at 4°C; mass spectrometry
# [4] = molecular target: Cullin 5 (mouse (endogenous in cultured HSPCs and bone marrow cells)) (UniProt Q9D5V5); assay: affinity purification with mass spectrometry; anti-CUL5 antibody (4 ug/mg) or rabbit IgG isotype control, Dynabeads; lysate (1% NP-40, 100 mM NaCl, 50 mM Tris-HCl) of HSPCs expanded from WT CD34lo HSCs with TPO, SCF and IL-3, bortezomib 50 nM for 2 hours before harvest; overnight at 4°C; tandem mass spectrometry
binder,measurement,setting,value
"ASB6, Q91ZU1 1-418 (protein) MPFLHGFRRIIFEYQPLVDAILGALGIQDLERQEPLDDSASSEESRILVLTELLEQKAHSPFYQEGVSNALLKMAELGLTRAAAVLLQSGANLNFEDPVTYYTALHIAVLRNQPDMVELLVRHGADINRRDRIHESSPLDLASEEPERLPCLQRLLDLGADVNAADKNGKTALLHALASSDGVQIHNTENIRLLLEGGADVKATTKDGDTVFTCIIFLLGETVCGDKEEAPMINRFCFQVTQLLLAHGADPSECPAHESLTHICLKSFKLHFPLLCFLLESGAAYNCSLHGASCWSGFNLVFERLCSHPGCAEDDSHIELLHKAETVLDLMVTSSQRLQLPENLNIHPVGSLAGKIQALHASLRQLESYPPPLKHLCRVSIRLCLRPWPVDTKVKALPLPDRLKWYLLSAHSDTQDTC",binding,[1],binds
"LTA4H (protein, UniProt P24527 1-611) MPEVADTCSLASPASVCRTQHLHLRCSVDFARRTLTGTAALTVQSQEENLRSLTLDTKDLTIEKVVINGQEVKYTLGESQGYKGSPMEISLPIALSKNQEIVIEISFETSPKSSALQWLTPEQTSGKQHPYLFSQCQAIHCRAILPCQDTPSVKLTYTAEVSVPKELVALMSAIRDGEAPDPEDPSRKIYRFNQRVPIPCYLIALVVGALESRQIGPRTLVWSEKEQVEKSANEFSETESMLKIAEDLGGPYVWGQYDLLVLPPSFPYGGMENPCLTFVTPTLLAGDKSLSNVIAHEISHSWTGNLVTNKTWDHFWLNEGHTVYLERHICGRLFGEKFRHFHALGGWGELQNTIKTFGESHPFTKLVVDLKDVDPDVAYSSIPYEKGFALLFYLEQLLGGPEVFLGFLKAYVKKFSYQSVTTDDWKSFLYSHFKDKVDLLNQVDWNTWLYAPGLPPVKPNYDVTLTNACIALSQRWVTAKEEDLSSFSIADLKDLSSHQLNEFLAQVLQKAPLPLGHIKRMQEVYNFNAINNSEIRFRWLRLCIQSKWEEAIPLALKMATEQGRMKFTRPLFKDLAAFDKSHDQAVHTYQEHKASMHPVTAMLVGRDLKVD",binding,[2],binds
same,binding,[3],binds
same,binding,[4],binds
"CIS, Q62225 1-257 (protein) MVLCVQGSCPLLAVEQIGRRPLWAQSLELPGPAMQPLPTGAFPEEVTEETPVQAENEPKVLDPEGDLLCIAKTFSYLRESGWYWGSITASEARQHLQKMPEGTFLVRDSTHPSYLFTLSVKTTRGPTNVRIEYADSSFRLDSNCLSRPRILAFPDVVSLVQHYVASCAADTRSDSPDPAPTPALPMSKQDAPSDSVLPIPVATAVHLKLVQPFVRRSSARSLQHLCRLVINRLVADVDCLPLPRRMADYLRQYPFQL",binding,[1],binds

# Results are given in words; binding and its absence hold for the method and conditions named. In cells and extracts the contact can be indirect. A yes stands for co-enrichment or nearness to the bait. Other partners may have been found.
